About 910 (0.23%) of roughly 390,000 compounds were called active. The shares of active, inactive and inconclusive entries below differ from those in the screen. Calls follow the shape of the dose curve; as a rule, active = well fitted inhibition curve with a large enough effect; inconclusive = small, poorly fitted or top-dose-only effect; inactive = no such curve, though single readings can be large or run the other way. A potency beside an inconclusive call is a rough fit, not a confirmed value.
Biological target: Ubiquitin carboxyl-terminal hydrolase 1 (Homo sapiens) (UniProt O94782)
Test: Inhibitors of USP1/UAF1: Primary Screen; also: nearly all actives have a fitted effect of over 60% in size
Details: recombinant USP1/UAF1, Ub-Rhodamine cleavage fluorescence; activity change, negative = inhibition: at 57.1 µM (top of the series)
Excerpt: Deubiquitinating enzymes (DUBs) are a class of enzymes that can cleave isopeptide bond formed between the C-terminal carboxylate of ubiquitin and a lysine side-chain amino group on the target protein. Among them, ubiquitin specific proteases (USPs) constitute the largest DUB family. Human USPs are emerging as promising targets for pharmacological intervention because of their connection to a number of human diseases, including prostate, colon and breast cancer (1, 2), pediatric acute lymphoblastic leukemia (3), and familial cylindromatosis (4). The advantage of inhibiting USPs lies in the potential specificity of therapeutic intervention that can lead to better efficacy and reduce nonspecific side effects. In a collaboration between the University of Delaware and the NIH Chemical Genomics Center, a high-throughput screen assay was developed to screen for USP1/UAF1 inhibitors. This miniaturized assay has a fluorescent read-out and is used to screen the NIH Molecular Libraries Small Molecule Repository (MLSMR) in order to identify a small molecule that inhibits USP1. NIH Chemical Genomics Center [NCGC] NIH Molecular Libraries Probe Centers Network [MLPCN] MLPCN Grant: DA030552 Assay Submitter (PI): Zhihao Zhuang, University of Delaware 1. Priolo, C., et al. (2006) The isopeptidase USP2a protects human prostate cancer from apoptosis. Cancer Res 66, 8625-8632 2. Popov, N., et al. (2007) The ubiquitin-specific protease USP28 is required for MYC stability. Nat Cell Biol 9, 765-774 3. De Pitta, C., et al. (2005) A leukemia-enriched cDNA microarray platform identifies new transcripts with relevance to the biology of pediatric acute lymphoblastic leukemia. Haematologica 90, 890-898 4. Kovalenko, A., et al. (2003) The tumour suppressor CYLD negatively regulates NF-kappaB signalling by deubiquitination. Nature 424, 801-805
3 microliters of reagents (buffer in columns 3 and 4 as negative control and 1nM USP1/UAF1 complex in columns 1, 2, and 5-48) are dispensed into Greiner black solid bottom 1536-well assay plates. Compounds are then transferred via Kalypsys pin tool equipped with 1536-pin array (10nl slotted pins, V&P Scientific, San Diego, CA). Following an incubation step of 15 min at room temperature, 1ul of Ub-Rho substrate (150nM final concentration) is added to initiate the reaction. The plates are immediately centrifuged at 1000 rpm for 15 seconds, and subsequently transferred to a ViewLux high-throughput CCD imager (PerkinElmer) wherein kinetic measurements of fluorescence are acquired using 480 nm excitation/540 nm emission filter set (6 reads every 60 seconds, see Table 1). All reagents are diluted in an assay buffer consisting of 50mM HEPES (pH 7.8), 0.5mM EDTA, 0.1 mg/ml BSA, 1mM TCEP, and 0.01% Tween-20.
% is scaled to controls: 0 for no effect and ±100 for the full control effect; potency is read from the fitted curve at half-maximal effect.

Protein sequences, listed by entry. Tags and fused reporters are not part of them. Lines headed by an entry give the natural chain unless they say otherwise; changes in a name come on top.
UniProt O94782: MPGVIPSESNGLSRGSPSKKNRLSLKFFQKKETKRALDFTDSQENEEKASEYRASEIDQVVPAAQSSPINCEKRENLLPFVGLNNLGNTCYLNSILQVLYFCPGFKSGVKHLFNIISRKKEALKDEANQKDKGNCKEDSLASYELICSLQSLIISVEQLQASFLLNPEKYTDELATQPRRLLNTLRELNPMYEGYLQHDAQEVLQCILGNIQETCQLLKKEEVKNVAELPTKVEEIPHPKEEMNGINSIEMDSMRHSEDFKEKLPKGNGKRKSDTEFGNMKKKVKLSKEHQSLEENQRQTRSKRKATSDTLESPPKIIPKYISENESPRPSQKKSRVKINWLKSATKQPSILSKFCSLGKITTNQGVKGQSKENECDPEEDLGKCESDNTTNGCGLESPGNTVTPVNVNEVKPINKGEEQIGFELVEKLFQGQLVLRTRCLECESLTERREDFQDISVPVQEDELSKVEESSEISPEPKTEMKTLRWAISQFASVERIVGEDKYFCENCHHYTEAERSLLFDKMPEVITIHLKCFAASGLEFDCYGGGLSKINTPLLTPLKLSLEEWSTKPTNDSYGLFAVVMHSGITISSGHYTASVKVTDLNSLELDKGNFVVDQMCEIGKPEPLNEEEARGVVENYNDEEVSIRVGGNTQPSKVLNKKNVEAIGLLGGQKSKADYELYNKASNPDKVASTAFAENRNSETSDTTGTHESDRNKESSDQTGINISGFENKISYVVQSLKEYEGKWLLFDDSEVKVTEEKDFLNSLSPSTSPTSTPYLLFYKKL

Potency, active:
C=CCN1C(=O)/C(=C/C=C2/N(CC)c3ccc(S(=O)(=O)N(C)C)cc3N2CC)SC1=S 28.2 µM
CCN(CC)c1ccc(/C=C(/C#N)c2nc3ccc(C)cc3[nH]2)c(OC(C)C)c1 25.1 µM
CCOC(=O)c1c(C)sc(-c2c(-c3cc(C)ccc3C)[nH]c3c2c(=O)[nH]c(=O)n3C)c1O 25.1 µM

Potency, inconclusive:
Cc1ccc(N2C(=O)CCSC23C(=O)N(Cc2ccc(F)cc2)c2ccccc23)cc1 (stereo unspecified) 17.8 µM [inhibitor, partial curve, poor fit]
Cc1cc(N2CCC(C)CC2)nc(-n2nc(C)cc2C)n1 22.4 µM [inhibitor, partial curve]
COc1cc(-c2ccno2)ccc1S(=O)(=O)N1CCN(c2ccccc2)CC1 4.47 µM [inhibitor, partial curve]
Cc1ccc2nc(-c3ccncc3)cc(C(=O)NCCc3ccc(F)cc3)c2c1 14.1 µM [inhibitor, partial curve, poor fit]
CN(C)c1ccc(CNC(=O)C2CCN(S(=O)(=O)c3ccc4[nH]c(=O)ccc4c3)CC2)cc1 39.8 µM [inhibitor, partial curve, poor fit]
O=C(Nc1ccccc1)C1=C(Nc2ccccc2)CSC1 63.1 µM [inhibitor, partial curve, poor fit]
C[C@@H]1COC(=O)[C@H](NC(=O)OCC2c3ccccc3-c3ccccc32)C/C=C\C[C@@H](CC(=O)N(CCO)Cc2ccccc2)C(=O)N1 14.1 µM [inhibitor, partial curve, poor fit]
COc1cc(/C=C2/SC(=S)N(CC3CCCO3)C2=O)ccc1O (stereo unspecified) 35.5 µM [inhibitor, partial curve]
Cc1cccc(Nc2nc3c(S(=O)(=O)c4ccc(Br)cc4)nnn3c3ccsc23)c1C 0.0891 µM [inhibitor, full curve, poor fit]
COc1cc(C2c3c(oc4ccccc4c3=O)C(=O)N2Cc2ccc(C)cc2)ccc1O (stereo unspecified) 4.47 µM [inhibitor, partial curve]
COc1cc(/C=N/N2C(=O)CSC2=S)cc(Br)c1O 44.7 µM [inhibitor, partial curve, poor fit]
Cc1ccc(C)c(NS(=O)(=O)c2ccc3oc(=O)c4ncn(C)c4c3c2)c1 2 µM [inhibitor, full curve, poor fit]
O=C(Nc1nccs1)c1ccc(-c2ccccc2Cl)o1 28.2 µM [inhibitor, partial curve]
COc1ccc(OC)c2c1cc(C(=O)N[C@@H](C)C(=O)N[C@@H](C(=O)O)c1ccccc1)n2C 35.5 µM [inhibitor, partial curve]
CC(=O)c1cccc(NC(=O)Cn2cc(C(=O)c3cccc(Cl)c3)c(=O)c3ccc(C)nc32)c1 39.8 µM [inhibitor, partial curve, poor fit]
C/C(=N\NC(=O)COc1ccccc1-c1ccccc1)c1ccccn1 20 µM [inhibitor, partial curve]
Nc1ccc2nc(-c3ccccc3)c(-c3ccccc3)nc2c1 28.2 µM [inhibitor, partial curve]
COc1cc(/C=N/Nc2nncn2N)ccc1OCc1c(C)no[n+]1[O-] 35.5 µM [inhibitor, partial curve, poor fit]
CCOC(=O)c1cc(S(=O)(=O)NCc2ccc(OC)cc2)[nH]n1 1 µM [inhibitor, full curve, poor fit]
O=C(CCNS(=O)(=O)c1ccc2c(c1)CCN2C(=O)C1CC1)N1CCN(c2cccc(C(F)(F)F)c2)CC1 22.4 µM [inhibitor, partial curve]
Cc1ccc(N=Cc2c(O)n(-c3nccs3)c(=O)c3ccccc23)c(C)c1 11.2 µM [inhibitor, partial curve]
Cc1ccc(Cn2cc(S(=O)(=O)c3ccc(Cl)cc3)c(=O)c3cc4c(cc32)OCO4)cc1 3.98 µM [inhibitor, partial curve]
CSc1ncnc2c1ncn2CCCNCc1cccc2ccccc12 0.251 µM [inhibitor, full curve, poor fit]
Cc1cc(S(=O)(=O)Nc2ccc(C(=O)NC3CC3)cc2)ccc1F 0.251 µM [inhibitor, full curve, poor fit]
Cc1ccc(CNC(=O)CCc2nc3cccnc3n2Cc2ccccc2)cc1 79.4 µM [inhibitor, partial curve, poor fit]
O=S(=O)(NCCc1ccc(F)cc1)c1cc(C(F)(F)F)ccc1Br 89.1 µM [inhibitor, partial curve, poor fit]
CC(=O)NC(CCS(C)(=O)=O)C(=O)N1CCc2ccccc21 (stereo unspecified) 0.355 µM [inhibitor, full curve, poor fit]
Cc1nc(SCCO)c2oc3ccccc3c2n1 12.6 µM [inhibitor, partial curve, poor fit]
O=C(O)CCC(=O)NCc1ccc2[nH]c3c(c2c1)CCCC3 15.8 µM [inhibitor, partial curve, poor fit]
COc1cc(NC(=O)CSc2nc3nc(C)c(Cc4ccccc4)c(C)n3n2)cc(OC)c1 5.01 µM [inhibitor, full curve, poor fit]
O=c1c2ccccc2sc2ccc(NCCCN3CCOCC3)cc12 44.7 µM [inhibitor, partial curve, poor fit]
CC(=O)c1ccc(N2CCN(CC(O)COC(c3ccccc3)c3ccccc3)CC2)cc1 (stereo unspecified) 50.1 µM [inhibitor, single point]
O=C(O)CN1C(=O)/C(=C\c2cc(Br)ccc2OCc2ccccc2F)SC1=S 35.5 µM [inhibitor, partial curve, poor fit]
CCOc1ccc(N(CC(=O)Nc2ccc(F)c(F)c2)S(=O)(=O)c2c(C)noc2C)cc1 0.794 µM [inhibitor, full curve]
Cc1csc(NC(=O)CCC(=O)N(CC(=O)NC2CCCC2)Cc2ccccc2)n1 1.26 µM [inhibitor, full curve, poor fit]
CCOc1ccc(/C=C/C(=O)NC2CCCCC2)cc1 39.8 µM [inhibitor, partial curve, poor fit]
Cc1ccc(C2=NCCn3nc4cc(C(F)(F)F)ccc4c32)cc1 50.1 µM [inhibitor, partial curve, poor fit]
CC(C)CC(OC(=O)c1nsc(Cl)c1Cl)C(=O)NCC1CCCO1 (stereo unspecified) 44.7 µM [inhibitor, partial curve, poor fit]
CN(C(=O)Nc1cn(C)c(=O)c2ccccc12)c1ccccc1 25.1 µM [inhibitor, partial curve]
O=C(/C=C/c1ccc(Cl)cc1)NC(=S)Nc1ccccc1C(=O)O 39.8 µM [inhibitor, partial curve, poor fit]
COc1ccc([C@H]2C=C(C(=O)O)O[C@@H](OCc3ccc(CO)cc3)C2)cc1 63.1 µM [inhibitor, partial curve, poor fit]

Random excerpt: 2 entries already listed
Potency, inconclusive:
CC(=O)c1cccc(NC(=O)Cn2cc(C(=O)c3cccc(Cl)c3)c(=O)c3ccc(C)nc32)c1 39.8 µM [inhibitor, partial curve, poor fit]
Cc1ccc2nc(-c3ccncc3)cc(C(=O)NCCc3ccc(F)cc3)c2c1 14.1 µM [inhibitor, partial curve, poor fit]

2 neighbouring records from above, for reference:
Potency, inconclusive:
Cc1ccc2nc(-c3ccncc3)cc(C(=O)NCCc3ccc(F)cc3)c2c1 14.1 µM [inhibitor, partial curve, poor fit]
CN(C)c1ccc(CNC(=O)C2CCN(S(=O)(=O)c3ccc4[nH]c(=O)ccc4c3)CC2)cc1 39.8 µM [inhibitor, partial curve, poor fit]

Next part.

Activity change, negative = inhibition, inactive:
O=c1c2sccc2[nH]c(=S)n1Cc1ccccc1 -13.1%
O=C(CCC(=O)Nc1ccc(F)cc1)N/N=C/c1cccc(Br)c1 -12.4%
CCc1ccc(C2C(C#N)=C(N)SC(N)=C2C#N)s1 -18.3%
O=C(CNC(=O)c1ccccc1F)OC1CCOC1=O (stereo unspecified) -4.23%
Cc1ccc(CNC(=O)Cn2ccn(-c3ccc(F)cc3)c(=O)c2=O)cc1 -7.2%
COc1ccc(CCn2c(NN)nc3c2c(=O)[nH]c(=O)n3C)cc1 -23.3%
Cc1[nH]c2ccccc2c1C(=O)C(=O)N1CCN(c2ccccc2Cl)CC1 -12.5%
CN(C1CCCCC1)S(=O)(=O)c1cccc(C#N)c1 -5.18%
Cc1cccc2c(=O)cc(CSc3ccccc3NC(=O)C(C)(C)C)[nH]c12 -15.8%
O=C(c1noc2c1CCCC2)N1CCC(CO)(Cc2ccccc2Cl)CC1 -8.57%
O=C(NCc1cccs1)C1CCCN(c2nc3ccccc3o2)C1 (stereo unspecified) -12.1%
CC1CCCN(c2sc(S(C)(=O)=O)nc2S(=O)(=O)c2ccc(Cl)cc2)C1 (stereo unspecified) -16.4%
COc1cc(O)c(C(=O)/C=C/c2ccccc2)c(OC)c1 -23.8%
N#Cc1ccccc1NC(=O)COC(=O)c1cccs1 -4.47%
Cc1cc(=O)[nH]c(N=N/C(=N/Nc2ccc(O)cc2)c2ccccc2)n1 -26%
CC(=O)NC(Cc1ccc(F)c(F)c1)C(=O)NC1CCN(S(=O)(=O)c2ccc(C)cc2)CC1 (stereo unspecified) -5.24%
Cc1ccc(S(=O)(=O)Nc2cc(Cl)c3oc4c(c3c2)C(=O)CC(C)(C)C4)cc1 -16.1%
C[C@@H]1CN([C@H](C)CO)S(=O)(=O)c2ccc(C3=CCCCC3)cc2O[C@H]1CN(C)C(=O)Cc1cccnc1 -18.4%
CCSc1nnc(NC(=O)C(C)Sc2nc3ccccc3[nH]2)s1 (stereo unspecified) -4.74%
CCCN1C(=O)CN(C2CCCCCC2)C(=O)C1c1ccc(OCC)c(OC)c1 (stereo unspecified) -3.05%
COc1ccc(CNC(=O)[C@H](C)NC(=O)C2CC(=O)N(c3ccc(OC)cc3)C2)cc1 (stereo partly specified) -5.92%
CN1CCc2nc(SCC(=O)Nc3ccc(OC(F)(F)F)cc3)c(C#N)c(-c3cccs3)c2C1 5.99%
